Binding data for one molecule are collected here from publication PMC8990465.

The test deals with T1, CLDN10 (Claudin-10) overexpressed with 3xflag (UniProt P78369).
T1 sequence: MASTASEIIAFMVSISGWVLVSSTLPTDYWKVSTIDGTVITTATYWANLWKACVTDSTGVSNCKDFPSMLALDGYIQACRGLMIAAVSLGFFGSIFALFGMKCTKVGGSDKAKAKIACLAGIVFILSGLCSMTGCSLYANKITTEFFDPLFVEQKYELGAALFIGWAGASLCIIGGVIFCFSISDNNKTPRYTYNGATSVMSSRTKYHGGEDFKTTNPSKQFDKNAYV
In words: affinity purification with mass spectrometry; anti-Flag M2 magnetic beads in cell lysate (IP lysis buffer) overnight at 4 °C; two silver-stained bands seen only in the CLDN10 overexpression group were sent to mass spectrometry.

These are yes or no findings as the source states them, for the method shown. Binding seen in cells or lysates may run through a third protein. These calls come from enrichment with a bait or labelling near it, and not all partners need be listed. Sequences can lack the tags named with a protein.

B1: ATP5O protein (ATP synthase subunit O, mitochondrial) (protein, UniProt P48047 24-213)
chain: FAKLVRPPVQVYGIEGRYATALYSAASKQNKLEQVEKELLRVAQILKEPKVAASVLNPYVKRSIKVKSLNDITAKERFSPLTTNLINLLAENGRLSNTQGVVSAFSTMMSVHRGEVPCTVTSASPLEEATLSELKTVLKSFLSQGQVLKLEAKTDPSILGGMIVRIGEKYVDMSVKTKIQKLGRAMREIV
Regarding B1, the binding result is “binds”.
